# ± gives the standard deviation. The list shows a part of the results, in another mix than the full data. Many of these values have a large error.
# Tested on: MILI (PIWIL2) piRISC loaded with piRNA #2 (26 nt)
# Test: pre-steady-state target cleavage rate (min^-1); MIWI and MILI are mouse PIWI proteins and EfPiwi is from a freshwater sponge; tags in brackets are library labels; higher = faster piRNA-guided slicing of the target
# Conditions: guide: piRNA #2 5'p-UUAGGUAACCCAGUAGAUCCAGAGGA; auxiliary factor: 500 nM mouse GTSF1
# Outline: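 Sequencing of uncleaved targets, normalised to depth and to weakly complementary targets, was the readout of this Cleave-'n-Seq assay. A transcribed, DNA-blocked target RNA library (0.1 nM) was mixed with 1 nM active affinity-purified piRISC carrying one synthetic guide, with or without 500 nM GTSF1 partner protein, in HEPES–potassium acetate buffer at 33 °C for 0–8 or 0–960 min. Three trials were pooled, k3 was capped at 0.0001 min^-1, and a burst-and-steady-state fit gave the pre-steady-state cleavage rate.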
row,Sequence,pre-steady-state target cleavage rate
1,CUUAUCCCUCUGGAUCUACUGGGUUACCUAA,0.0911 ± 0.022
2,CUUAAGGAGACCAUCUACAGGGAUACCUAA,0.00131 ± 0.007
3,CUUAAGGAGACCUUCUACAGGGAUACCUAA,0.000602 ± 0.011
4,CUUAAGGAGACCUACUACUAGGGUUACCUAA,0.00055 ± 0.016
5,CUUAAGGAGUCGAUCUAGUGGGUUACCUAA,0.00104 ± 0.0073
6,CUUAAGGAGACGAUCUACACGGUUACCUAA,0.000636 ± 0.034
7,CUUAAGGAGACGAUCUCUGGGUUACCUAA,0.000632 ± 0.0096
8,CUUAAGGAGAGGAUGUACUGCGUUACCUAA,0.00058 ± 0.016
9,CUUAAGGAGACCUACUACUGGGUUACCAAA,0.000235 ± 0.028
10,CUUAAGCUCAGGAUCAACUGGGUUACCUAA,0.0432 ± 0.014
11,CUUAAGGAGACCUAGUACUGGGAUUCCUAA,0.000819 ± 0.012
12,CUUAAGCUCUGGAUCUACUCGGGUUACCUAA,0.00162 ± 0.0071
13,CUUAAGGAGUGGAUCUACUGGGAAACCUAA,0.0025 ± 0.0056
14,CUUAAGGAGUGGAUCUACUGGGCUACCUAA,0.000478 ± 0.02
15,CUUAAGGAGACGAUGUUCUGGGUUACCUAA,0.000307 ± 0.025
16,CUUAAGGAGACCAUCUCACUGGGUUACCUAA,0.00023 ± 0.038
17,CUUAAGGAGACCUACUACUGGGUUACCUAC [g2:g16:cont:t1C],0.000167 ± 0.017
18,CUUAAGGACUGGAUCUAUGGGUUACCUAA,0.00281 ± 0.0095
19,CUUAAGGAGAGGAUCUACUGCCAUACCUAA,0.00011 ± 0.026
20,CUUAACCUCUGCAUCUACUGGCUUACCUAA,0.00389 ± 0.004
21,CUUAAGGAGACCUUCUAGUGGCUUACCUAA,0.000344 ± 0.019
22,CUUAAGGACUGGAUCUACUGGGUAACCUUA,0.000502 ± 0.027
23,CUUAAGGACUGGAUCUACUCGGUUACCUAA,0.000893 ± 0.019
24,CUUAAGGAGUGGAUCUAGUGGGUUACGUAA,0.000281 ± 0.015

row,Sequence,pre-steady-state target cleavage rate
1,CUUAAGGAGUGGAUCUACCUGGGUUACCUAA,0.000764 ± 0.013
2,CUUAAGGAGAGGAUCUACUGGGUAACCUUA,0.00116 ± 0.0075
3,CUUAAGGAGAGGAUCUACUGGGUUACCUGA,0.00228 ± 0.0058
4,CUUAAGGAGAGGAUCUACUGGGUUUCCAAA,0.000306 ± 0.029
5,CUUAAGGAGACCACUACUGGGUUACCUAA,0.000742 ± 0.014
6,CUUAAGGAGUGGAUCUUCUGCGUUACCUAA,0.00138 ± 0.0093
7,CUUAUCCUCUGGAUCUACUGCGUUAGCUAA,0.00192 ± 0.0068
8,CUUAAGGAGACCAUCUAUGGGUUACCUAA,0.000346 ± 0.028
9,CUUAAGGAGUGGAUCUACUGGGUUACUAA,0.00233 ± 0.0059
10,CUUAAGCUCUGGAUCUACUGGGUUUGCUAA,0.144 ± 0.031
11,CUUAAGGACUGGAUGCUACUGGGUUACCUAA,0.00666 ± 0.0099
12,CUUAAGGUCUGGAUCUCUGGGUUACCUAA,0.000711 ± 0.032
13,CUUAAGGAGACCUUCAACUGGGUUUCCUAA,0.000326 ± 0.022
14,CUUAAGGAGACGAUCUAGUGGGUAACCUAA,0.00118 ± 0.0088
15,CUUAUCCUCUGGAUCUACUGCCAUACCUAA,0.000513 ± 0.013
16,CUUAAGGAGACCAUCUACUGGGUUGCCUAA,0.000483 ± 0.02
17,CUUAAGGAGAGGAUCUACUGAGGUUACCUAA,0.000483 ± 0.0088
18,CUUAAGGAGUGGUUCUACUGGGAUACCUAA,0.00288 ± 0.0041
19,CUUAAGCUGUGGAUCUACUCGGUUACCUAA,0.000408 ± 0.02
20,CUUAAGGAGAGGAACUACUGGGUUAGCUAA,0.000592 ± 0.024
21,CUUAAGGACUGGAUCUACUGGGAUACCUAA,0.00837 ± 0.0099
22,CUUAAGGACUGGAUCUACUGAGUUACCUAA,0.00767 ± 0.0096
23,CUUAACCUCUGGAUCUAGUGGCUUACCUAA,0.000208 ± 0.039
24,CUUAAGGAGUGGAUCUUCUGGGUUACCUUA,0.014 ± 0.007

# Part of the list above, with tabs:
row	Sequence	pre-steady-state target cleavage rate
10	CUUAAGCUCAGGAUCAACUGGGUUACCUAA	0.0432 ± 0.014
11	CUUAAGGAGACCUAGUACUGGGAUUCCUAA	0.000819 ± 0.012
12	CUUAAGCUCUGGAUCUACUCGGGUUACCUAA	0.00162 ± 0.0071
13	CUUAAGGAGUGGAUCUACUGGGAAACCUAA	0.0025 ± 0.0056

# (next part)

row,Sequence,pre-steady-state target cleavage rate
1,CUUAAGGAGACGAUCUACUGGGUGACCUAA,0.000127 ± 0.064
2,CUUAAGGAGAGGAUCUACCGGGUUACCUAA,0.00177 ± 0.0039
3,CUUAAGGAGACCAUCAACUGGGUUAGCUAA,0.000125 ± 0.077
4,CUUAUCCUCUGGUUCUAGUGGGUUACCUAA,0.134 ± 0.028
5,CUUAAGGAGACGUUCUUCUGGGUUACCUAA,0.00138 ± 0.0073
6,CUUAAGGAGUGGUUGUACUGGGUUACCUAA,0.00375 ± 0.0042
7,CUUAAGCUCUGGAUCUACUGUGGUUACCUAA,0.000562 ± 0.018
8,CUUAAGGAGACCAUCUACUGGGUUACGUAA,0.000417 ± 0.011
9,CUUAAGGAGACCUAGAUCUGGGUUACGCUAA,0.00012 ± 0.093
10,CUUAAGCUCUGGAUCUAGUGGGAUACCUAA,0.00824 ± 0.0045
11,CUUAAGGAGAGGAUCUACUGGGUUACGCUAA,0.00227 ± 0.0043
12,CUUAAGGAGACCAUCUACUGGGUUACCUGAA,0.000499 ± 0.014
13,CUUAAGGAGACCUACUACUGGGUUAACCUAA,0.000191 ± 0.025
14,CUUAAGGAGUGCAUCUAGUGGGUUACCUAA,0.00288 ± 0.0051
15,CUUAAGGAGACGAUCUACGUGGGUUACCUAA,0.000525 ± 0.021
16,CUUAAGGUCUGGAUCUACUGGGUACCUAA,0.00139 ± 0.0065
17,CUUAAGGAGACCUACUACCUGGGUUACCUAA,0.000335 ± 0.028
18,CUUAUCCUCUGGAUCUACUGGGUUACCUCA,0.0902 ± 0.018
19,CUUAAGGAGACCAACUACUGGGUAACCUAA,0.000317 ± 0.03
20,CUUAAGGUCUGGAUCUACUAGGGUUACCUAA,0.00365 ± 0.0041
21,CUUAUCCUCUGGAUCUACUGGGUUACCUAC [g2:g26:cont:t1C],0.105 ± 0.014
22,CUUAAGGAGACCUACUACUGGGUUACCUCAA,0.000245 ± 0.027
23,CUUAAGGAGACCUACUACUGGGUUACCUGAA,0.00026 ± 0.026

# Reference: the supplement of paper PMC10338343
